Out of some 390,000 compounds screened, about 4,000 (1%) were called active. The shares of active, inactive and inconclusive entries below differ from those in the screen. Calls follow the shape of the dose curve; as a rule, active = well fitted inhibition curve with a large enough effect; inconclusive = small, poorly fitted or top-dose-only effect, or another doubt; inactive = no such curve, though single readings can be large or run the other way. Where the call is inconclusive, the potency comes from a doubtful curve fit.
What follows are compounds tested against DNA polymerase iota (Homo sapiens) (UniProt Q9UNA4) (assay: qHTS for Inhibitors of Polymerase Iota). Settings: Pol iota fluorescent replication assay, 10 min; series mostly up to 115 µM.
Procedure, shortened: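 Pol iota at 10 nM preincubated 15 min with compounds at room temperature; reaction started with fluorescent substrate, 50 nM final. Fluorescence read kinetically at 0 and 10 min; buffer-only wells as negative control.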
Potency is read from the fitted curve at half-maximal effect.

Amino acid sequences for entries named in this document (tags omitted). A change or cut given only in a name is not applied to a line headed by its entry.
UniProt Q9UNA4: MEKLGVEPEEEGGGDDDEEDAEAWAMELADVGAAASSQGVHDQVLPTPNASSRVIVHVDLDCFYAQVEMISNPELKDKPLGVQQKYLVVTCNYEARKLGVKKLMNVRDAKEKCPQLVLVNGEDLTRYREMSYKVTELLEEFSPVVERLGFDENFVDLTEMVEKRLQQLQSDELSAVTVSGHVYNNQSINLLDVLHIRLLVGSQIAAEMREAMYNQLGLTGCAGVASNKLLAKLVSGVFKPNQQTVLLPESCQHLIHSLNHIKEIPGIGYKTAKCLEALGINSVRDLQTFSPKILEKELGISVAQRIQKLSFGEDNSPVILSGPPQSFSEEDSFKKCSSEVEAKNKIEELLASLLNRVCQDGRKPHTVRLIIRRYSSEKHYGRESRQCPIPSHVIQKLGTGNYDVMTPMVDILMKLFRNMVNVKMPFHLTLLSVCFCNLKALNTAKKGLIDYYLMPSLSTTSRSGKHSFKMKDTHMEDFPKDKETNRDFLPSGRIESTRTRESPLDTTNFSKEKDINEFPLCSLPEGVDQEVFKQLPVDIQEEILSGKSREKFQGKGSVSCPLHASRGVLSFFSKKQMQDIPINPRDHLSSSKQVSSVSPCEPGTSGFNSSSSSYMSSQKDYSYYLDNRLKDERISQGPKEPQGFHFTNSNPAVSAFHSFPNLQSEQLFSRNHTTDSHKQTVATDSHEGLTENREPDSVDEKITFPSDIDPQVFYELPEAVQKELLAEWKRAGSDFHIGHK

| SMILES | Potency |
| --- | --- |
| Cc1ccc(Cl)cc1N1CCN(C(=O)c2ccc(C)c(-n3c(C)nc4cccnc43)c2)CC1 | inactive |
| Cc1cc(C)c2c(c1)/C(=N/Nc1ccc(S(N)(=O)=O)cc1[N+](=O)[O-])CCC2 | inactive |
| Cc1cc2nc3n(c2cc1C)CC1CC(C(=O)NCCc2cccs2)N(C)C31 (configuration not stated) | inconclusive: 17.8 µM [inhibitor, partial curve, poor fit] |
| COC(=O)C1=COC(OC2OC(CO)C(O)C(O)C2O)C2C1C=CC2(O)CO (configuration not stated) | active: 39.8 µM |
| O=C(CSc1nc2c(cnn2-c2ccccc2)c(=O)[nH]1)c1ccc(Cl)cc1 | inconclusive: 4.47 µM [inhibitor, full curve, poor fit] |
| Cc1cc(C(=O)OCC(=O)Nc2cccc(S(=O)(=O)N3CCOCC3)c2)c(C)o1 | inconclusive: 39.8 µM [inhibitor, single point] |
| COc1ccc(-c2ccc(=O)n(CC(=O)NCc3ccco3)n2)cc1 | inconclusive: 20 µM [inhibitor, partial curve, poor fit] |
| COc1ccc(S(=O)(=O)Oc2cccc(/C=N/N=C3/NC(=O)C(CC(=O)O)S3)c2)cc1 (configuration not stated) | inconclusive: 17.8 µM [inhibitor, partial curve, poor fit] |
| O=C(CSc1ccccc1)N1CCN(c2ccccc2)CC1 | inconclusive: 7.94 µM [inhibitor, full curve, poor fit] |
| COc1ccc(CCNC(=O)CC(=O)N/N=C/c2ccc(Br)cc2)cc1OC | inconclusive: 39.8 µM [inhibitor, partial curve, poor fit] |
| COc1ccc(C(=O)c2ccc(N3CCOCC3)cc2)c(OC)c1 | inconclusive: 10 µM [inhibitor, single point] |
| C=CCn1c(SCC(=O)Nc2cc(C)on2)nc2sc3c(c2c1=O)CCCC3 | inconclusive: 35.5 µM [inhibitor, single point] |
| COc1ccc(-c2onc(C)c2C)cc1S(=O)(=O)NC1CCC(C)CC1 (configuration not stated) | inactive |
| O=C(CSc1nc(C(F)(F)F)cc(=O)[nH]1)N1CCCC1 | inactive |
| COc1cc(NC(=O)Cn2cc(S(=O)(=O)c3ccccc3)c(=O)c3ccccc32)cc(OC)c1 | inactive |
| O=C(Cn1cnc2scc(-c3ccccc3)c2c1=O)NCc1ccco1 | active: 56.2 µM |
| COC(=O)[C@]1(Cc2ccccc2)N[C@H](c2ccc(-c3ccc(Cl)c(Cl)c3)cc2)[C@@H]2C(=O)N(C)C(=O)[C@@H]21 | inconclusive: 14.1 µM [inhibitor, partial curve, poor fit] |
| Cc1cccc(OCC(=O)Nc2ccccc2N2CCN(C(=O)C(C)C)CC2)c1C | inconclusive: 39.8 µM [inhibitor, single point] |
| COc1cc(C(=O)N/C(=C\c2cn(C)c3ccccc23)C(=O)N2CCN(C)CC2)cc(OC)c1OC | inconclusive: 79.4 µM [inhibitor, single point] |
| O=C(O)CSc1ccc(S(=O)(=O)N2CCCC2)cn1 | inconclusive: 7.08 µM [inhibitor, single point] |
| CCn1c2ccccc2c2cc(N=C3SC(CC(=O)Nc4ccccc4OC)C(=O)N3C)ccc21 (configuration not stated) | inactive |

| SMILES | Potency |
| --- | --- |
| Nc1cc(=O)[nH]c(SCC(=O)Nc2ccc(F)c(Cl)c2)n1 | inconclusive: 2.82 µM [inhibitor, full curve, poor fit] |
| Cc1ccc(C)c(C(C)NC(=O)C2CC=CCC2C(=O)O)c1 (configuration not stated) | inconclusive: 89.1 µM [inhibitor, single point] |
| CCOC(=O)/C(=C\c1ccc(OC)c(OC)c1)C(=O)c1cccnc1 | inconclusive: 39.8 µM [inhibitor, single point] |
| Fc1ccc(CNc2nc(-c3ccccc3)cc(C(F)(F)F)n2)cc1 | inconclusive: 89.1 µM [inhibitor, single point] |
| Cn1c(=O)c2c(nc(SCC(=O)Nc3ccc(F)cc3)n2Cc2ccccc2)n(C)c1=O | inactive |
| CCN(CC)c1ccc(NC(=O)CSc2ccsc2[N+](=O)[O-])c(C)c1 | inconclusive: 7.08 µM [inhibitor, full curve, poor fit] |
| CCC(C(=O)Nc1ccc(C(C)=O)cc1)n1c(C)c2cnn(-c3ccccc3)c(=O)c2c1C (configuration not stated) | inactive |
| COc1cc(N(C)C)c(OC)cc1C=O | inconclusive: 11.2 µM [inhibitor, full curve, poor fit] |
| Cc1cccc(CS(=O)(=O)c2ncc(Cl)c(C(=O)NCc3ccccc3)n2)c1 | inconclusive: 22.4 µM [inhibitor, single point] |
| Nc1ccccc1SC1CC(=O)N(c2ccccc2Cl)C1=O (configuration not stated) | inconclusive: 89.1 µM [inhibitor, single point] |
| O=C(NCCc1ccccc1)c1cc(Sc2ccc(F)cc2F)nc2ccccc12 | inconclusive: 100 µM [inhibitor, single point] |
| Cc1ccccc1CN1CCCN(CC(=O)Nc2c(C)cccc2C)S1(=O)=O | inactive |
| O=C(Nc1cccc(S(=O)(=O)N2CCOCC2)c1)c1c2c(nc3ccccc13)CCC2 | active: 44.7 µM |
| Cc1ccc(NC(=O)Cn2c(=O)ccc3cc(S(=O)(=O)N4CCC(C)CC4)ccc32)cc1Cl | inconclusive: 70.8 µM [inhibitor, partial curve, poor fit] |
| COc1cccc(NC(=S)N/N=C2/CCCCc3ccccc32)c1 | inactive |
| Cc1ccc(C(=O)N/C(=C\c2cccs2)C(=O)NCc2ccncc2)cc1 | inconclusive: 50.1 µM [inhibitor, partial curve, poor fit] |
| O=C(Nc1nc2c(s1)CCCC2)c1ccc(Br)s1 | active: 79.4 µM |
| Cc1ccc(NC(=O)CSc2nnc(N)s2)c(C)c1 | inconclusive: 79.4 µM [inhibitor, partial curve, poor fit] |
| Cc1ccc(CS(=O)(=O)Cc2ccc(C(=O)NCc3cccs3)o2)cc1 | inconclusive: 89.1 µM [inhibitor, single point] |
| CC(C)(C)c1ccc(-c2noc(CCC(=O)N3CCOCC3)n2)cc1 | inactive |
| N=c1c(-c2nc3ccccc3[nH]2)cc(C(=O)c2cccs2)nn1-c1ccccc1 | inconclusive: 100 µM [inhibitor, single point] |

Single values from the results shown.
In Potency, `Cn1c(=O)c2c(nc(SCC(=O)Nc3ccc(F)cc3)n2Cc2ccccc2)n(C)c1=O` reads inactive
In Potency, `C=CCn1c(SCC(=O)Nc2cc(C)on2)nc2sc3c(c2c1=O)CCCC3` reads inconclusive: 35.5 µM [inhibitor, single point]

— PubChem BioAssay AID588590 (National Center for Advancing Translational Sciences (NCATS), 2011)
